Experimental data: doi:10.1101/2020.07.16.206730
No constants are given. Whether binding was seen depends on the method and setting. Binding seen in cells or lysates may run through a third protein. Some results given as binding are weak or reduced against the parent protein; the word gives no strength. Values belong to the binder of their own block, whether it stands above or below them.

By UniProt entry, the sequences of proteins in these tests, tags left out.
UniProt Q04695: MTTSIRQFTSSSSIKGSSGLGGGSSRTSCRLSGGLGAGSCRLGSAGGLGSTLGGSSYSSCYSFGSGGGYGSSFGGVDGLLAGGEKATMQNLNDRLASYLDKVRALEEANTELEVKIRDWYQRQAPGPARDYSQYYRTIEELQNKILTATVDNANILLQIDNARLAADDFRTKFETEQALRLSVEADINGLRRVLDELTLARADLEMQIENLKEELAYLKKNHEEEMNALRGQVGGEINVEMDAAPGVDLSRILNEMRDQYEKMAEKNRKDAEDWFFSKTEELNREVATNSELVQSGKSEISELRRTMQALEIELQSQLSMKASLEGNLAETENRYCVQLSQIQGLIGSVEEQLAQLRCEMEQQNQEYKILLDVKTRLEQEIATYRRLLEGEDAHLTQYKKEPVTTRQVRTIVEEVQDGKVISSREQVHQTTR

Target: Keratin 17 (human (endogenous in HeLa and A431)) (UniProt Q04695)
Assay: co-IP

binding: binds
B1: Lamina-Associated Polypeptide 2 β isoform (protein, UniProt P42167 1-454)
chain: MPEFLEDPSVLTKDKLKSELVANNVTLPAGEQRKDVYVQLYLQHLTARNRPPLPAGTNSKGPPDFSSDEEREPTPVLGSGAAAAGRSRAAVGRKATKKTDKPRQEDKDDLDVTELTNEDLLDQLVKYGVNPGPIVGTTRKLYEKKLLKLREQGTESRSSTPLPTISSSAENTRQNGSNDSDRYSDNEEDSKIELKLEKREPLKGRAKTPVTLKQRRVEHNQSYSQAGITETEWTSGSSKGGPLQALTRESTRGSRRTPRKRVETSEHFRIDGPVISESTPIAETIMASSNESLVVNRVTGNFKHASPILPITEFSDIPRRAPKKPLTRAEVGEKTEERRVERDILKEMFPYEASTPTGISASCRRPIKGAAGRPLELSDFRMEESFSSKYVPKYVPLADVKSEKTKKGRSIPVWIKILLFVVVAVFLFLVYQAMETNQVNPFSNFLHVDPRKSN

binding: binds
B2: Lamina-Associated Polypeptide 2 γ isoform (protein, UniProt P42167-2 1-345)
chain: MPEFLEDPSVLTKDKLKSELVANNVTLPAGEQRKDVYVQLYLQHLTARNRPPLPAGTNSKGPPDFSSDEEREPTPVLGSGAAAAGRSRAAVGRKATKKTDKPRQEDKDDLDVTELTNEDLLDQLVKYGVNPGPIVGTTRKLYEKKLLKLREQGTESRSSTPLPTISSSAENTRQNGSNDSDRYSDNEEDSKIELKLEKREPLKGRAKTPVTLKQRRVEHNQVGEKTEERRVERDILKEMFPYEASTPTGISASCRRPIKGAAGRPLELSDFRMEESFSSKYVPKYVPLADVKSEKTKKGRSIPVWIKILLFVVVAVFLFLVYQAMETNQVNPFSNFLHVDPRKSN

binding: binds
B3: lamin B2 (protein, UniProt Q03252 1-620)
chain: MSPPSPGRRREQRRPRAAATMATPLPGRAGGPATPLSPTRLSRLQEKEELRELNDRLAHYIDRVRALELENDRLLLKISEKEEVTTREVSGIKALYESELADARRVLDETARERARLQIEIGKLRAELDEVNKSAKKREGELTVAQGRVKDLESLFHRSEVELAAALSDKRGLESDVAELRAQLAKAEDGHAVAKKQLEKETLMRVDLENRCQSLQEELDFRKSVFEEEVRETRRRHERRLVEVDSSRQQEYDFKMAQALEELRSQHDEQVRLYKLELEQTYQAKLDSAKLSSDQNDKAASAAREELKEARMRLESLSYQLSGLQKQASAAEDRIRELEEAMAGERDKFRKMLDAKEQEMTEMRDVMQQQLAEYQELLDVKLALDMEINAYRKLLEGEEERLKLSPSPSSRVTVSRATSSSSGSLSATGRLGRSKRKRLEVEEPLGSGPSVLGTGTGGSGGFHLAQQASASGSVSIEEIDLEGKFVQLKNNSDKDQSLGNWRIKRQVLEGEEIAYKFTPKYILRAGQMVTVWAAGAGVAHSPPSTLVWKGQSSWGTGESFRTVLVNADGEEVAMRTVKKSSVMRENENGEEEEEEAEFGEEDLFHQQGDPRTTSRGCYVM

binding: binds
B4: Lamina-Associated Polypeptide 2 α isoform (protein, UniProt P42166 1-694)
chain: MPEFLEDPSVLTKDKLKSELVANNVTLPAGEQRKDVYVQLYLQHLTARNRPPLPAGTNSKGPPDFSSDEEREPTPVLGSGAAAAGRSRAAVGRKATKKTDKPRQEDKDDLDVTELTNEDLLDQLVKYGVNPGPIVGTTRKLYEKKLLKLREQGTESRSSTPLPTISSSAENTRQNGSNDSDRYSDNEEGKKKEHKKVKSTRDIVPFSELGTTPSGGGFFQGISFPEISTRPPLGSTELQAAKKVHTSKGDLPREPLVATNLPGRGQLQKLASERNLFISCKSSHDRCLEKSSSSSSQPEHSAMLVSTAASPSLIKETTTGYYKDIVENICGREKSGIQPLCPERSHISDQSPLSSKRKALEESESSQLISPPLAQAIRDYVNSLLVQGGVGSLPGTSNSMPPLDVENIQKRIDQSKFQETEFLSPPRKVPRLSEKSVEERDSGSFVAFQNIPGSELMSSFAKTVVSHSLTTLGLEVAKQSQHDKIDASELSFPFHESILKVIEEEWQQVDRQLPSLACKYPVSSREATQILSVPKVDDEILGFISEATPLGGIQAASTESCNQQLDLALCRAYEAAASALQIATHTAFVAKAMQADISQAAQILSSDPSRTHQALGILSKTYDAASYICEAAFDEVKMAAHTMGNATVGRRYLWLKDCKINLASKNKLASTPFKGGTLFGGEVCKVIKKRGNKH
